Measurements reported in PubChem BioAssay AID504774 (Drosophila RNAi Screening Center, 2011)
The screen tested about 23,000 reagents; this is an unselected part of those that have a named target and a result. 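Values are quantile-normalised luminescence on an arbitrary scale; higher means more cells surviving MMS.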 Names joined by + are all predicted targets of the reagent. Not all columns of the deposit are shown.

Aim: 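Knock-downs that shift viability of MMS-exposed cells relative to untreated ones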 (primary screen)
System: Drosophila Kc167 cells
Knock-down reagent: long dsRNA against Drosophila genes, about 0.25 µg dsRNA per well
Duration: about 6 days: 3 days knock-down, then 3 days with or without MMS
Conditions: methyl methanesulphonate 0.004% (w/v) for 3 days after knock-down
Detection: 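Viability in wells given MMS, read as ATP luminescence, normalised by quantiles plate by plate and averaged across replicates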
Reading the numbers: mean viability with MMS and viability with MMS: higher = more surviving cells after MMS

Against CG33189 [DRSC21427], the values are mean viability with MMS 3.61e6; viability with MMS, replicate 1 = 4.06e6.
With knock-down of CG14947 [DRSC02429], the screen gave mean viability with MMS 3.62e6; viability with MMS, replicate 1 = 4.19e6.
Ilp5 [DRSC08998] gave mean viability with MMS 3.84e6; viability with MMS, replicate 1 = 4.20e6.
With knock-down of CG8204 [DRSC07106] the results were mean viability with MMS 3.49e6; viability with MMS, replicate 1 = 4.01e6.
Depletion of Hmgcl [DRSC02051] resulted in: mean viability with MMS 3.59e6; viability with MMS, replicate 1 = 4.11e6.
For Magi [DRSC04247], the entry reads mean viability with MMS 3.65e6; viability with MMS, replicate 1 = 4.00e6.
For Magi [DRSC04451], the entry reads mean viability with MMS 3.33e6; viability with MMS, replicate 1 = 3.81e6.
Art3 [DRSC16065] scored mean viability with MMS 3.66e6; viability with MMS, replicate 1 = 4.16e6.
CG3987 [DRSC15531] scored mean viability with MMS 3.49e6; viability with MMS, replicate 1 = 3.89e6.
RhoGEF64C [DRSC08318] showed mean viability with MMS 3.57e6; viability with MMS, replicate 1 = 4.11e6.
Depletion of RhoGEF64C [DRSC08319] gave: mean viability with MMS 3.36e6; viability with MMS, replicate 1 = 3.78e6.
Silencing of CG15570 [DRSC18058] came out at: mean viability with MMS 3.60e6; viability with MMS, replicate 1 = 4.10e6.
With knock-down of CG32833 [DRSC04596], the screen gave mean viability with MMS 3.62e6; viability with MMS, replicate 1 = 4.03e6.
Silencing of CG6290 [DRSC19979] came out at: mean viability with MMS 3.80e6; viability with MMS, replicate 1 = 4.24e6.
Tif-IA [DRSC03717] scored mean viability with MMS 3.04e6; viability with MMS, replicate 1 = 3.48e6.
After knock-down of Tif-IA [DRSC03726], the screen gave mean viability with MMS 3.38e6; viability with MMS, replicate 1 = 3.75e6.
CheB53a [DRSC06625] gave mean viability with MMS 3.71e6; viability with MMS, replicate 1 = 4.21e6.
CG10098 [DRSC12509] gave mean viability with MMS 3.53e6; viability with MMS, replicate 1 = 3.96e6.
Silencing of CG8192 [DRSC07101] resulted in: mean viability with MMS 3.19e6; viability with MMS, replicate 1 = 3.67e6.
SREBP [DRSC11182] showed mean viability with MMS 3.44e6; viability with MMS, replicate 1 = 3.80e6.
Against Obp57c [DRSC06384] the deposit lists mean viability with MMS 3.45e6; viability with MMS, replicate 1 = 3.95e6.
CG17666 [DRSC10276] showed mean viability with MMS 3.58e6; viability with MMS, replicate 1 = 4.08e6.
Knock-down of CG8229 [DRSC07114] resulted in: mean viability with MMS 3.40e6; viability with MMS, replicate 1 = 3.81e6.
Silencing of Traf4 [DRSC00445] resulted in: mean viability with MMS 3.29e6; viability with MMS, replicate 1 = 3.57e6.
With knock-down of Traf4 [DRSC00794], the screen gave mean viability with MMS 3.54e6; viability with MMS, replicate 1 = 4.03e6.
Depletion of dsf [DRSC03524] came out at: mean viability with MMS 3.53e6; viability with MMS, replicate 1 = 4.14e6.
Pif1A + Pif1B [DRSC14142] gave mean viability with MMS 3.54e6; viability with MMS, replicate 1 = 4.02e6.
Pif1A + Pif1B [DRSC14380] showed mean viability with MMS 3.65e6; viability with MMS, replicate 1 = 4.13e6.
For Pif1A + Pif1B [DRSC14381] the deposit lists mean viability with MMS 3.62e6; viability with MMS, replicate 1 = 4.10e6.
Knock-down of ATP6AP2 [DRSC16420] gave: mean viability with MMS 3.30e6; viability with MMS, replicate 1 = 3.72e6.
Against Hey [DRSC07440], the values are mean viability with MMS 2.80e6; viability with MMS, replicate 1 = 3.57e6.
Hey [DRSC23030] scored mean viability with MMS 3.52e6; viability with MMS, replicate 1 = 4.14e6.
With knock-down of ATPsynCF6 [DRSC14092], the screen gave mean viability with MMS 3.48e6; viability with MMS, replicate 1 = 3.93e6.
CG13023 [DRSC09454] gave mean viability with MMS 3.47e6; viability with MMS, replicate 1 = 3.95e6.
Knock-down of CG13023 [DRSC09903] resulted in: mean viability with MMS 3.69e6; viability with MMS, replicate 1 = 4.10e6.

Only “mean viability with MMS”, for 3 of the entries above:
CG8192 [DRSC07101] = 3.19e6
SREBP [DRSC11182] = 3.44e6
Obp57c [DRSC06384] = 3.45e6
